Results are given in words; binding and its absence hold for the method and conditions named. Binding seen in cells or lysates may run through a third protein. A result given as binding can be weak or reduced; the word gives no strength. Sequences can lack the tags named with a protein.
Biological target: T1, Myc-tagged Cos2 (Myc-Cos2) (Drosophila) (UniProt O16844)
T1 sequence: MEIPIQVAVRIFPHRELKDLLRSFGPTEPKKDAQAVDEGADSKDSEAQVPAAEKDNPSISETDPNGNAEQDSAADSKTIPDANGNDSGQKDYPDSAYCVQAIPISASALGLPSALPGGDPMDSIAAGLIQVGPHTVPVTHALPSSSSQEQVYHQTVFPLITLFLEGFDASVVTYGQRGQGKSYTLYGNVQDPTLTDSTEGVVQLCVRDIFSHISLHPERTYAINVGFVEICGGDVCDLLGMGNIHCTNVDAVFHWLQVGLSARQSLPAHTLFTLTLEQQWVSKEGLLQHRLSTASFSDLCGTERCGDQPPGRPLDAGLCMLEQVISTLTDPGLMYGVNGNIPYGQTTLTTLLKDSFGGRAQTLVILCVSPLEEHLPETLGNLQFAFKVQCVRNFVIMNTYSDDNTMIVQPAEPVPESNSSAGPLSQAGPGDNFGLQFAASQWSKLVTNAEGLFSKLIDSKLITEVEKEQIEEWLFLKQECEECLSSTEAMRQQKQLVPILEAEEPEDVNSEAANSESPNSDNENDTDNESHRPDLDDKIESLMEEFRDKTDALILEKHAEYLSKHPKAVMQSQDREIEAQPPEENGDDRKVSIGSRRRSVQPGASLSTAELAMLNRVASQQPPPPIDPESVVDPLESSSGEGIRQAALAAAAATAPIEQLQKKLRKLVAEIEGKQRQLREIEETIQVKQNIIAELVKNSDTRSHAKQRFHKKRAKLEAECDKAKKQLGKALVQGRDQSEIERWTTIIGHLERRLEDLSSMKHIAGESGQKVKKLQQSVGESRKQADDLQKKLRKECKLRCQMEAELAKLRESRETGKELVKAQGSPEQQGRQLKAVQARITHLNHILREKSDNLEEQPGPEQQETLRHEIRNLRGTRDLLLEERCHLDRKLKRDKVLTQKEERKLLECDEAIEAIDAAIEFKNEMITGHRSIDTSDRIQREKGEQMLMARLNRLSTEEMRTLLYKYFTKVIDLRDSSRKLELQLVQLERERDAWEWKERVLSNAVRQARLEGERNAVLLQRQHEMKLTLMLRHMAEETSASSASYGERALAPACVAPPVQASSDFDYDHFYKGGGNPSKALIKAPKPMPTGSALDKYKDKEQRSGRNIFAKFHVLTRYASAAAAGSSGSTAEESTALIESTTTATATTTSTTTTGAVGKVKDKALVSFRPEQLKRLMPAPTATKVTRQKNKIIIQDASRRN
Experiment: co-IP; S2R+ cells transfected with FLAG-Ci variants and Myc-Cos2, and with dsRNA against Su(fu); either anti-FLAG or anti-Myc IP; lysis in PBS with 1.0% Triton X-100

binding: binds weakly
Substance: CiZnCΔCORD (Drosophila) (domain or fragment)

Source: PMC4536226
